Values from PubChem BioAssay AID504784 (Drosophila RNAi Screening Center, 2011)
The deposit covers about 17,000 reagents; this is an unselected part of those with a known target gene and a result. 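Each column is one replicate's B-score; the combined score over replicates was not deposited, so single values may mislead.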 Reagents against one gene are numbered here.

Assay: 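Fly genes whose silencing alters how much lipid cells keep in droplets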 (primary screen)
Cells: Drosophila Kc167 embryonic cells
Reagent: long dsRNA against Drosophila genes, about 250 ng dsRNA per well
Timing: 4 days
Treatment: cells fed 400 µM oleic acid bound to BSA
Measured: 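Cells imaged and segmented; ratio of lipid droplet area to nuclear area, log-transformed, then normalised as a B-score over the screen; higher means more stored lipid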
Scale: droplet/nuclear area B-score: higher = more stored lipid (overstorage)

target gene	reagent	droplet/nuclear area B-score, replicate 1	droplet/nuclear area B-score, replicate 2	droplet/nuclear area B-score, replicate 3
SoYb (GeneID 34331)	1	0.231	1.25	
CG31948 (GeneID 326178)	1	0.00184	0.686	
Nedd8 (GeneID 35151)	1	0.44	0.0172	
dao (GeneID 34891)	1	1.95	0.351	
ttm2 (GeneID 38049)	1	-1.19	2.25	
Srpk79D (GeneID 40461)	1	-0.00594	1.19	-1.3
Srpk79D (GeneID 40461)	2	-0.0265	0.421	
CG17211 (GeneID 34639)	1	-0.377	0.64	
CG9067 (GeneID 36197)	1	-0.912	-0.754	
ena (GeneID 37201)	1	-0.648	0.74	
ena (GeneID 37201)	2	1.31	-0.212	
Dnali1 (GeneID 41440)	1	0.0451	0.139	
Vps37B (GeneID 40624)	1	2.31	-0.371	
CG30280 (GeneID 37522)	1	-0.866	0.0133	
CG7326 (GeneID 32882)	1	0.568	0.00349	
MTF-1 (GeneID 39089)	1	0.0252	-0.42	-1.66
MTF-1 (GeneID 39089)	2	0.493	-1	
Slob (GeneID 34038)	1	-1.39	-0.0978	
Ask1 (GeneID 42366)	1	1.1	0.0113	
Ask1 (GeneID 42366)	2	-0.278	-0.0752	
Cpr100A (GeneID 43657)	1	-0.246	0.292	
Tsf1 (GeneID 32821)	1	-0.46	1.18	
Smyd3 (GeneID 44554)	1	-1.5	0.283	
CG6738 (GeneID 42732)	1	-0.339	0.569	
Pdhb (GeneID 43437)	1	1.82		
upd2 (GeneID 32805)	1	-1.81	-5.59	0.11
ATPsynbetaL (GeneID 39761)	1	0.455	0.914	
CG6015 (GeneID 42593)	1	0.199	-2.06	
Flad2 (GeneID 34759)	1	0.0719	-0.501	
Cdk8 (GeneID 39157)	1	0.0796	-0.107	
CG1299 (GeneID 38496)	1	-0.677	-0.669	
CG3437 (GeneID 39096)	1	-0.0365	-0.263	
FASN2 (GeneID 117361)	1	1.03	-0.0208	
FASN2 (GeneID 117361)	2	-0.00924	0.201	

A stretch of the results above, for reference:
target gene	reagent	droplet/nuclear area B-score, replicate 1	droplet/nuclear area B-score, replicate 2	droplet/nuclear area B-score, replicate 3
Ask1 (GeneID 42366)	2	-0.278	-0.0752	
Cpr100A (GeneID 43657)	1	-0.246	0.292	
Tsf1 (GeneID 32821)	1	-0.46	1.18	
Smyd3 (GeneID 44554)	1	-1.5	0.283	
CG6738 (GeneID 42732)	1	-0.339	0.569	
